Test results as given in the supplement of paper PMC6411743.
± gives the standard deviation of the averaged measurements. The entries are a selection whose mix differs from that of the whole data set.

Amino acid sequences for entries named in this document (tags omitted). A change or cut given only in a name is not applied to a line headed by its entry.
UniProt Q9H668: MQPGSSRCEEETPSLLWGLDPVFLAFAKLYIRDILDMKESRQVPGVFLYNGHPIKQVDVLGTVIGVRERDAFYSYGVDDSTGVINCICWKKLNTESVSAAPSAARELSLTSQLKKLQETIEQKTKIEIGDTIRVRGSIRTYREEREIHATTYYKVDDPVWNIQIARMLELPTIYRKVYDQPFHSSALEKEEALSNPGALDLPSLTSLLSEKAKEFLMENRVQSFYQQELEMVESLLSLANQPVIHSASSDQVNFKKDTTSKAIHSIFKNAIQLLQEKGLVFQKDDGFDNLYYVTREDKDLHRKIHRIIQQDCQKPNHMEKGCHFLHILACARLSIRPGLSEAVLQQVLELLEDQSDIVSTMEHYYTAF
UniProt Q9H1B7, whole entry: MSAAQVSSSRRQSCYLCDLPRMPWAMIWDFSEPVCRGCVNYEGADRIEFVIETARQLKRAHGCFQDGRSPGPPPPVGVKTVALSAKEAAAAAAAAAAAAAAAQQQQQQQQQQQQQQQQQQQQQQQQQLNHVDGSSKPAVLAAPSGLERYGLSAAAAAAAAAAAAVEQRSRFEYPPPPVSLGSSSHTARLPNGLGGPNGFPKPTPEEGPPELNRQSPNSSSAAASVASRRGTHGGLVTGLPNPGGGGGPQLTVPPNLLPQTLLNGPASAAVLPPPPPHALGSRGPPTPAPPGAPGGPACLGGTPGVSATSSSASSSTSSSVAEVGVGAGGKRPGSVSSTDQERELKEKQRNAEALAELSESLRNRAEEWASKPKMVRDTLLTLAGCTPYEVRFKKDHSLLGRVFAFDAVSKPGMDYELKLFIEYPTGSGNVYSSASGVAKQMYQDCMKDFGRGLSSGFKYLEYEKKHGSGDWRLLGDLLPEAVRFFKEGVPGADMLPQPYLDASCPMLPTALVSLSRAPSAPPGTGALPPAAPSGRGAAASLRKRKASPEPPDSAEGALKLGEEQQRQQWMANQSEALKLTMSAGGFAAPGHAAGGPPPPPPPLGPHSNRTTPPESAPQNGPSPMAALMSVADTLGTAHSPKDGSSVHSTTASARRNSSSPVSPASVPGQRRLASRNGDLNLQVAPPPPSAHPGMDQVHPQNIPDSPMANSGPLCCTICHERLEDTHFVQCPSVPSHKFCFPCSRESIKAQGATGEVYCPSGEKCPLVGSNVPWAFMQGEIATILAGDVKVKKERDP
UniProt Q9H0J9: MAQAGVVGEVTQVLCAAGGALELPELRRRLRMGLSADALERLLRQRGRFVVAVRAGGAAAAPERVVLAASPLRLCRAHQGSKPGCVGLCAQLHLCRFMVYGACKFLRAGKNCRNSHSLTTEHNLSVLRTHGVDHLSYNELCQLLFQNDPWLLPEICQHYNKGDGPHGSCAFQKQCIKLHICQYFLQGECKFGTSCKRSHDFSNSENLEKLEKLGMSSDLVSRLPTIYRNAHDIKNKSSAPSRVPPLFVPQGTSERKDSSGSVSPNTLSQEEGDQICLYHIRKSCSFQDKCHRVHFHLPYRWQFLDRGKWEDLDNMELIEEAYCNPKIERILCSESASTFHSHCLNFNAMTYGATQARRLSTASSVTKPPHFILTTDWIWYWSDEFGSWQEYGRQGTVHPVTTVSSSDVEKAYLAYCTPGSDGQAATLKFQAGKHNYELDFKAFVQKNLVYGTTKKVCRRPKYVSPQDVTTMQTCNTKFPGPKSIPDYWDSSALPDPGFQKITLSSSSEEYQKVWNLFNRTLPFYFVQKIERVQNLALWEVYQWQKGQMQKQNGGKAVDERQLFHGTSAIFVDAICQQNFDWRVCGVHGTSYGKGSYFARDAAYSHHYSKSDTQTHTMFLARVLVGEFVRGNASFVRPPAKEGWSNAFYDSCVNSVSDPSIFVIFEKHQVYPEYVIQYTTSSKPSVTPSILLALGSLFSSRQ
UniProt Q9HBK9: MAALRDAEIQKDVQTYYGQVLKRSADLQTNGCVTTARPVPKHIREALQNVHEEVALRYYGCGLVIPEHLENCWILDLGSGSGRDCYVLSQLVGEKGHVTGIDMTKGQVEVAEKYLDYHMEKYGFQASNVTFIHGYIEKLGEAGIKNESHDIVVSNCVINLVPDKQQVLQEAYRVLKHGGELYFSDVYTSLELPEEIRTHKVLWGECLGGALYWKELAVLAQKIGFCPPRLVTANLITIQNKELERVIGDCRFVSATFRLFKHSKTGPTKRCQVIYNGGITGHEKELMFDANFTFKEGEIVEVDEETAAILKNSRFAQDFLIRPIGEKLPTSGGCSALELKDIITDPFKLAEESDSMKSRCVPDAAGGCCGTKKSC
UniProt Q9H3C7, whole entry: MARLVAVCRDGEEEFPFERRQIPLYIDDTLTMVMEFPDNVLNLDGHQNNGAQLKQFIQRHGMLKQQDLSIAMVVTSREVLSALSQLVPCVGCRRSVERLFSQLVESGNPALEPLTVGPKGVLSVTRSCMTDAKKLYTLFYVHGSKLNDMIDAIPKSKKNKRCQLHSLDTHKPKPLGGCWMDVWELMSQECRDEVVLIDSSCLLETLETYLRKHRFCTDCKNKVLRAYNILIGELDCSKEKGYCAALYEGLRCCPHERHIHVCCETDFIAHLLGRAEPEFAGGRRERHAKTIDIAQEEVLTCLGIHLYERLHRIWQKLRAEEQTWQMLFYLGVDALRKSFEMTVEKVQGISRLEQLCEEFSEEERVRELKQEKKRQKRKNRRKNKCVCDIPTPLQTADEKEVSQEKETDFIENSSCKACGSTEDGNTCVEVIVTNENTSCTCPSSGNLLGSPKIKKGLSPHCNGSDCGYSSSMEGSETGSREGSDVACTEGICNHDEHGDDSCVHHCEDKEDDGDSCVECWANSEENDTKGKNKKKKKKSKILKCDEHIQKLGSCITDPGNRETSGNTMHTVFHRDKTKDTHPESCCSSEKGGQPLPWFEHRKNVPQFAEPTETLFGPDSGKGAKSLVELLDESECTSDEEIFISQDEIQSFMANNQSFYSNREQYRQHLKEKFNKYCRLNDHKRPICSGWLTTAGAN
UniProt Q9HC21: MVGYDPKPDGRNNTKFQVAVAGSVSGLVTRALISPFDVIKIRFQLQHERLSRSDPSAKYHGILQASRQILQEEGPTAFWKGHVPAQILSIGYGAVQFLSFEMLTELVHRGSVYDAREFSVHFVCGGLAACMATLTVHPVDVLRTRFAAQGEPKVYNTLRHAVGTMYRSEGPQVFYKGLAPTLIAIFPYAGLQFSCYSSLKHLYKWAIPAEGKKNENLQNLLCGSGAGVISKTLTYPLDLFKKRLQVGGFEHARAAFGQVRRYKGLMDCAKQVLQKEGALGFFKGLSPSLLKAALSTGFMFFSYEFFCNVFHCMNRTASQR
UniProt Q9HCI7: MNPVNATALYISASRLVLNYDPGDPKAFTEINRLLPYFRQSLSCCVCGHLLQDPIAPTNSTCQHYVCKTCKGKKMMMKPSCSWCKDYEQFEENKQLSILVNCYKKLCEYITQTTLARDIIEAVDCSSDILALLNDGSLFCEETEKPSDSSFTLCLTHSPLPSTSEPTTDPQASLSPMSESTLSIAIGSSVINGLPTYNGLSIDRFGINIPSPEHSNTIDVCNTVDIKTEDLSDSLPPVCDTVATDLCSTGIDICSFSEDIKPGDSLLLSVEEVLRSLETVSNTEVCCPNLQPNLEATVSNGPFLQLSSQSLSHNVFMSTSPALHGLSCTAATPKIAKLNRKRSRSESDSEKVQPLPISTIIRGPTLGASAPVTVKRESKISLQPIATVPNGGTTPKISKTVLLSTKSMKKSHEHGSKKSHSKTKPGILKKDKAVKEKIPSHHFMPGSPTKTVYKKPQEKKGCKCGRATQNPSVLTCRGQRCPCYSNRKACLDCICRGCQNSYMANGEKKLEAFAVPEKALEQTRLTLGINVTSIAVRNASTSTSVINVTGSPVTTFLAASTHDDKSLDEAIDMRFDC
UniProt Q9C0E8: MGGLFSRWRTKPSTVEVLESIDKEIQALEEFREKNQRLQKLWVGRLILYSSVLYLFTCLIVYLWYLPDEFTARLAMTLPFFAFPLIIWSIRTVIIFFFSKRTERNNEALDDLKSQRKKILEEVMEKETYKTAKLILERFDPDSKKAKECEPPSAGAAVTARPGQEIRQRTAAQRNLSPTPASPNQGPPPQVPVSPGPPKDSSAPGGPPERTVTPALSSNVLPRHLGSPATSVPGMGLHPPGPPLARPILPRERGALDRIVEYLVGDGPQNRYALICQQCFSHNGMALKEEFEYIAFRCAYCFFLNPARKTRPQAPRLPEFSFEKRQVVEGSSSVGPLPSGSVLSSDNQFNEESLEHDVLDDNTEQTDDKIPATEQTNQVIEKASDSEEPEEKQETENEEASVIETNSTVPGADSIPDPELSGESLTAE
UniProt Q9H9B4: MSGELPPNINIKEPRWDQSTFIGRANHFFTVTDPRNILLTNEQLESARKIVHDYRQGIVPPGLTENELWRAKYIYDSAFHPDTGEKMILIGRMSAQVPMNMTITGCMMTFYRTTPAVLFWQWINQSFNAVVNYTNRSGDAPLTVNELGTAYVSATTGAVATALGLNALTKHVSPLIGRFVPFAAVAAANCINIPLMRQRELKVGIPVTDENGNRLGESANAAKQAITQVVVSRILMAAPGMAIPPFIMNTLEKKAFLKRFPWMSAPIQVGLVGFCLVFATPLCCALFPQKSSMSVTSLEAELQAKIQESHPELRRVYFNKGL
UniProt Q9H2Y7: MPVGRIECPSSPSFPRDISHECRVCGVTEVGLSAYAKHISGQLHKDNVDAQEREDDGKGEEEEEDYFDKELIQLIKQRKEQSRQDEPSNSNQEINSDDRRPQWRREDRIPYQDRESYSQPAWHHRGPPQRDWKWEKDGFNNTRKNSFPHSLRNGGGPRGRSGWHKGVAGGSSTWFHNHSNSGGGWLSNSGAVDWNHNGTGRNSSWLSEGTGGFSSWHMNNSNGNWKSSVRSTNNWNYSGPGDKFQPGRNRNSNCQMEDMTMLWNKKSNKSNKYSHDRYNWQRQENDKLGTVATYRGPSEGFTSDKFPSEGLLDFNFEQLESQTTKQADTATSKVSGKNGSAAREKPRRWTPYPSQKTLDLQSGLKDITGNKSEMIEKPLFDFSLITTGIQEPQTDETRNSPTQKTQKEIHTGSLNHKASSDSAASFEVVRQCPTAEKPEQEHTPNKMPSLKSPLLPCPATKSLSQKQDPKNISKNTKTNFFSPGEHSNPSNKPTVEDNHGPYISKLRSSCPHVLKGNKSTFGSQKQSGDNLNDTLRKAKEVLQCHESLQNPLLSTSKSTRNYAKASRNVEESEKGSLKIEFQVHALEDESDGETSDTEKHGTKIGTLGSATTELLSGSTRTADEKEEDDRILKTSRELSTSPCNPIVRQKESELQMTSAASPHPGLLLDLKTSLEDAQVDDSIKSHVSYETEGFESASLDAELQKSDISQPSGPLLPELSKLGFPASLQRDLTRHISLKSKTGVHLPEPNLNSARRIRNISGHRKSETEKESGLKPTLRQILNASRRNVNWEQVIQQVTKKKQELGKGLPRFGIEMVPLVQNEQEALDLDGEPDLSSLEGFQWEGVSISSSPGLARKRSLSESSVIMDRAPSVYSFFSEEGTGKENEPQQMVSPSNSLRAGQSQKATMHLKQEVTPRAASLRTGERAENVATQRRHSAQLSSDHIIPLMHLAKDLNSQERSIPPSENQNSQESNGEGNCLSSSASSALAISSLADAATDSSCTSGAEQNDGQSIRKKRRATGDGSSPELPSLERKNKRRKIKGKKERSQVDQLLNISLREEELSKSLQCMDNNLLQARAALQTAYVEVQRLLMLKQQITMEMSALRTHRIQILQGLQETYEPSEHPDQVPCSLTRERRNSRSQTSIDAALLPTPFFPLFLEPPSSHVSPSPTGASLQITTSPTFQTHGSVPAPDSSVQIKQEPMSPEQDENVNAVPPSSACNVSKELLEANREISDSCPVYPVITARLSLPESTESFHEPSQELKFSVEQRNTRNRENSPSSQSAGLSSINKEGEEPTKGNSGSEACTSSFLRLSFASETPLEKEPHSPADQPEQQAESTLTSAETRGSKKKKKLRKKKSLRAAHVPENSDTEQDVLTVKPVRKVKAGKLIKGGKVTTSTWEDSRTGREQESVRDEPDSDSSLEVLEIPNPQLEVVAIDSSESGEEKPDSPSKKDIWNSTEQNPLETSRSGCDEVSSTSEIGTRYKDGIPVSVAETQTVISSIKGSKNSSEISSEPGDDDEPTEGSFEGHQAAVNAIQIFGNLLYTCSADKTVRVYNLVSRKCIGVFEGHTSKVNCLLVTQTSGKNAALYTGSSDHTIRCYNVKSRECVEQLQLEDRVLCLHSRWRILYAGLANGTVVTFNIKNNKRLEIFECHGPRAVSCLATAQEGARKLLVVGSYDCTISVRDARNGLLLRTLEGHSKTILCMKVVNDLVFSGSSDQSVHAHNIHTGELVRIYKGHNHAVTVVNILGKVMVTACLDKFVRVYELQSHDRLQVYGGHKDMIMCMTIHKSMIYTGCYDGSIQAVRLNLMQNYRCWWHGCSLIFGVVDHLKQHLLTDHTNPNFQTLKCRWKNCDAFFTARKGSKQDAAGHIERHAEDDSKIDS

Compound: Nc1ncnc2c1ncn2[C@@H]1O[C@H](COP(=O)(O)OP(=O)(O)OP(=O)(O)O)[C@@H](O)[C@H]1O [adenosine triphosphate]
Assay: NP40-soluble protein abundance relative to vehicle (solubility fold change) (ratio); higher = more soluble protein in presence of ATP
In short: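 Data come from three independent experiments in which Dounce-homogenised Jurkat crude lysate was treated at eight concentrations from 0.1 to 10 mM. Treatment ran 10 min at room temperature and then 3 min at 37 °C, after which 0.8% NP40 and benzonase were added for 60 min at 4 °C before ultracentrifugation. The supernatant underwent TMT labelling and LC-MS/MS, and vsn-normalised intensities were expressed as fold change against the detergent-processed vehicle in each replicate.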

| Target | NP40-soluble protein abundance (concentration: 1mM) | NP40-soluble protein abundance (concentration: 2mM) | NP40-soluble protein abundance (concentration: 4mM) | NP40-soluble protein abundance (concentration: 6mM) | NP40-soluble protein abundance (concentration: 8mM) | NP40-soluble protein abundance (concentration: 10mM) |
| --- | --- | --- | --- | --- | --- | --- |
| UCK1 (UniProt Q9HA47) | 0.962 ± 0.03 | 0.967 ± 0.061 | 0.979 ± 0.055 | 1.04 ± 0.095 | 1 ± 0.069 | 0.956 ± 0.12 |
| UniProt Q9H7H0 and related entries | 0.997 ± 0.035 | 0.982 ± 0.086 | 1.1 ± 0.12 | 1.05 ± 0.15 | 1.07 ± 0.14 | 0.967 ± 0.064 |
| UniProt Q9H871 | 1.05 ± 0.048 | 0.993 ± 0.052 | 0.976 ± 0.062 | 0.946 ± 0.16 | 0.982 ± 0.096 | 0.987 ± 0.087 |
| UniProt Q9H668 | 0.914 ± 0.25 | 0.9 ± 0.11 | 0.964 ± 0.25 | 0.958 ± 0.15 | 0.951 ± 0.083 | 1.01 ± 0.17 |
| UPF2 (UniProt Q9HAU5) | 1.01 ± 0.018 | 1 ± 0.0075 | 0.988 ± 0.027 | 1.02 ± 0.037 | 0.985 ± 0.018 | 0.997 ± 0.033 |
| UniProt Q9H330 and related entries | 0.937 ± 0.026 | 0.947 ± 0.047 | 0.937 ± 0.034 | 0.968 ± 0.027 | 0.896 ± 0.024 | 0.941 ± 0.061 |
| UniProt Q9H4A3 and related entries | 1.01 ± 0.043 | 1 ± 0.025 | 0.987 ± 0.029 | 1.03 ± 0.06 | 0.964 ± 0.026 | 0.991 ± 0.02 |
| EHD4 (UniProt Q9H223) | 1.02 ± 0.023 | 1.02 ± 0.02 | 1.01 ± 0.028 | 0.985 ± 0.042 | 0.996 ± 0.032 | 0.998 ± 0.063 |
| EHD1 (UniProt Q9H4M9) | 1.02 ± 0.077 | 1.01 ± 0.05 | 1 ± 0.083 | 0.954 ± 0.086 | 1 ± 0.093 | 0.974 ± 0.047 |
| UniProt Q9H7Z3 and related entries | 1.04 ± 0.075 | 1.08 ± 0.038 | 1.131 ± 0.01 | 1.1 ± 0.061 | 1.17 ± 0.073 | 1.18 ± 0.022 |
| UniProt Q9H1B7 | 0.96 ± 0.044 | 0.967 ± 0.051 | 0.947 ± 0.018 | 0.947 ± 0.032 | 0.916 ± 0.013 | 0.939 ± 0.019 |
| UniProt Q9H7E9 and related entries | 1.01 ± 0.2 | 0.921 ± 0.063 | 0.983 ± 0.062 | 1.02 ± 0.1 | 1.02 ± 0.053 | 0.965 ± 0.071 |
| PARP12 (UniProt Q9H0J9) | 1.06 ± 0.084 | 1.08 ± 0.075 | 1.07 ± 0.071 | 1.03 ± 0.11 | 1.06 ± 0.016 | 1.04 ± 0.036 |
| UniProt Q9HBK9 | 1.02 ± 0.11 | 0.997 ± 0.069 | 1.01 ± 0.088 | 0.977 ± 0.14 | 0.959 ± 0.052 | 0.965 ± 0.029 |
| UniProt Q9H3Z4 and related entries | 0.955 ± 0.1 | 0.979 ± 0.033 | 0.948 ± 0.07 | 0.944 ± 0.025 | 0.911 ± 0.035 | 0.893 ± 0.04 |
| GGNBP2 (UniProt Q9H3C7) | 1.1 ± 0.067 | 1.08 ± 0.035 | 1.2 ± 0.019 | 1.15 ± 0.036 | 1.12 ± 0.091 | 1.07 ± 0.047 |
| SLC25A19 (UniProt Q9HC21) | 0.944 ± 0.077 | 0.937 ± 0.026 | 0.961 ± 0.039 | 0.876 ± 0.087 | 1.01 ± 0.031 | 1.06 ± 0.033 |
| PLEKHA3 (UniProt Q9HB20) | 1.01 ± 0.0094 | 1.09 ± 0.082 | 1 ± 0.074 | 0.996 ± 0.042 | 0.974 ± 0.11 | 0.939 ± 0.058 |
| UniProt Q9HCI7 and related entries | 1.31 ± 0.092 | 1.33 ± 0.15 | 1.35 ± 0.18 | 1.41 ± 0.092 | 1.43 ± 0.17 | 1.5 ± 0.13 |
| UniProt Q9H5X1 | 0.934 ± 0.04 | 0.985 ± 0.021 | 0.988 ± 0.025 | 1 ± 0.072 | 0.9298 ± 0.0039 | 0.898 ± 0.014 |
| UniProt Q9C0E8 and related entries | 0.929 ± 0.055 | 0.959 ± 0.028 | 0.954 ± 0.025 | 0.934 ± 0.019 | 0.937 ± 0.062 | 0.962 ± 0.029 |
| UniProt Q9HD47 and related entries | 1.02 ± 0.022 | 0.973 ± 0.033 | 1.05 ± 0.052 | 0.949 ± 0.096 | 1.03 ± 0.069 | 1.03 ± 0.12 |
| UniProt Q9H425 and related entries | 0.993 ± 0.058 | 1.01 ± 0.055 | 0.995 ± 0.029 | 1.02 ± 0.02 | 0.966 ± 0.036 | 0.956 ± 0.059 |
| UniProt Q9H074 and related entries | 0.887 ± 0.052 | 0.946 ± 0.083 | 0.927 ± 0.044 | 0.909 ± 0.078 | 0.886 ± 0.021 | 0.876 ± 0.073 |
| COMMD5 (UniProt Q9GZQ3) | 0.864 ± 0.016 | 0.865 ± 0.03 | 0.8766 ± 0.0064 | 0.758 ± 0.082 | 0.902 ± 0.052 | 0.819 ± 0.063 |
| GHITM (UniProt Q9H3K2) | 0.944 ± 0.076 | 0.875 ± 0.084 | 0.859 ± 0.08 | 0.864 ± 0.2 | 0.899 ± 0.064 | 0.882 ± 0.056 |
| SFXN1 (UniProt Q9H9B4) | 0.971 ± 0.012 | 0.978 ± 0.023 | 0.959 ± 0.02 | 0.96 ± 0.051 | 0.9536 ± 0.0036 | 0.959 ± 0.021 |
| UniProt Q9HBE1 and related entries | 1.05 ± 0.034 | 1.02 ± 0.055 | 1.1 ± 0.042 | 1.13 ± 0.08 | 1.09 ± 0.044 | 1.11 ± 0.02 |
| UniProt Q9H2Y7 and related entries | 1.03 ± 0.18 | 1.1 ± 0.21 | 1.13 ± 0.16 | 1.1 ± 0.23 | 1.1 ± 0.12 | 1.16 ± 0.21 |
| UniProt Q9C0G0 and related entries | 1.06 ± 0.13 | 0.954 ± 0.15 | 1.02 ± 0.089 | 0.955 ± 0.11 | 0.916 ± 0.062 | 0.962 ± 0.13 |

Exported as labelled records: entries from further up.
UniProt Q9H5X1
  NP40-soluble protein abundance (concentration: 1mM): 0.934 ± 0.04
  NP40-soluble protein abundance (concentration: 2mM): 0.985 ± 0.021
  NP40-soluble protein abundance (concentration: 4mM): 0.988 ± 0.025
  NP40-soluble protein abundance (concentration: 6mM): 1 ± 0.072
  NP40-soluble protein abundance (concentration: 8mM): 0.9298 ± 0.0039
  NP40-soluble protein abundance (concentration: 10mM): 0.898 ± 0.014
UniProt Q9C0E8 and related entries
  NP40-soluble protein abundance (concentration: 1mM): 0.929 ± 0.055
  NP40-soluble protein abundance (concentration: 2mM): 0.959 ± 0.028
  NP40-soluble protein abundance (concentration: 4mM): 0.954 ± 0.025
  NP40-soluble protein abundance (concentration: 6mM): 0.934 ± 0.019
  NP40-soluble protein abundance (concentration: 8mM): 0.937 ± 0.062
  NP40-soluble protein abundance (concentration: 10mM): 0.962 ± 0.029
